From PubChem BioAssay AID1487 (National Center for Advancing Translational Sciences (NCATS), 2009)
The list shows a part of the results. The main result of the screen is listed elsewhere. These columns were measured beside it and carry no call. Compounds called inactive in the main read-out are mostly missing here. Words in brackets tell the shape of the fitted curve; partial curves, single points and poor fits give uncertain potencies.

Assay: qHTS Assay for Modulators of Lamin A Splicing
Settings: HeLa LMNA splicing GFP/RFP minigene ratio, 48 h
In short: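 Read-out is the ratio of GFP to DsRed2 object intensity, acquired by 488 nm laser-scanning cytometry on HeLa lamin A-EGFP minigene reporter cells. Compound incubation 48 hrs at 37 °C in Opti-MEM with 2% FBS; DMSO 0.5% final.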

[1] = measured here: RFP viability control channel
[2] = measured here: GFP splicing reporter channel

Row | Structure (SMILES) | AC50 [1] | AC50 [2]
1 | Cc1cnc(C(=O)OCC(=O)NCCCc2ccccc2)cn1 | 11.2 µM [falling, partial curve] | –
2 | CC/C(=N\NC(=O)c1cc(C)nc2ccccc12)c1ccc(C)s1 | 11.2 µM [rising, single point] | –
3 | O=C(Nc1nc2ccccc2s1)c1cc(-c2ccccc2)nn1-c1ccccc1 | 6.31 µM [rising, full curve] | 2.51 µM [rising, single point]
4 | COCc1nnc(SCC(=O)Nc2cccc(Cl)c2C)n1-c1ccccc1 | – | 12.6 µM [rising, single point]
5 | N#C/C(=C/C=C/c1ccccc1)C(=O)Nc1ccccc1 | 2 µM [rising, full curve, poor fit] | –
6 | O=C(NCc1ccco1)/C(=C\C=C\c1ccccc1)NC(=O)c1ccccc1Br | 25.1 µM [falling, partial curve] | –
7 | CCOC(=O)CCNCc1ccc(F)cc1 | – | 0.398 µM [falling, partial curve]
8 | CCc1nnc(NC(=O)CCC(=O)N2CCN(Cc3ccc(Cl)cc3)CC2)s1 | 10 µM [rising, partial curve] | –
9 | O=C(C1CCC(CNc2nc(=S)[nH]c3ccccc23)CC1)N1CCN(c2ccc(F)cc2)CC1 (stereo not drawn) | 0.794 µM [falling, full curve, poor fit] | 3.55 µM [falling, full curve]
10 | COc1cc(/C=N/NC(=O)CCN2CCN(c3ccccc3)CC2)cc(OC)c1OC | 0.316 µM [rising, partial curve, poor fit] | –
11 | CCOc1cc(/C=C2/NC(=O)N(CC(=O)OC)C2=O)ccc1O | 3.16 µM [falling, full curve] | –
12 | COCCCNC(=O)CN(c1ccc(Cl)c(Cl)c1)S(C)(=O)=O | 31.6 µM [rising, single point] | –
13 | CN1CCN(c2ncc3nc(-c4cn(C)c5ccccc45)c(=O)n(Cc4cccs4)c3n2)CC1 | 22.4 µM [falling, partial curve] | 17.8 µM [falling, partial curve]
14 | COc1ccc2[nH]c3nc(SCc4nnc(-c5ccccc5)o4)nnc3c2c1 | 5.01 µM [rising, full curve] | 7.94 µM [rising, partial curve]
15 | Cc1ccc(-c2nc(CN(C)C3CCOC3)c(C)o2)s1 (stereo not drawn) | 4.47 µM [falling, full curve] | –
16 | CCc1ccccc1NC(=O)Cc1ccc(-n2cccc2)cc1 | 35.5 µM [rising, single point] | 17.8 µM [rising, single point]
17 | CC(C)(Oc1cccc2ccccc12)C(=O)O | – | 3.55 µM [rising, full curve, poor fit]
18 | Cc1cc2nc(-c3cccc(NC(=O)c4ccc(Br)o4)c3C)oc2cc1C | 11.2 µM [rising, partial curve] | –

Row | Structure (SMILES) | AC50 [1] | AC50 [2]
19 | O=C(O)CCCCC(=O)O | 0.178 µM [rising, full curve, poor fit] | –
20 | Cc1ccc(C(=O)N2NC(c3ccc(F)cc3)C3C(=O)N(c4ccc(C)c(C)c4)C(=O)C32)cc1 (stereo not drawn) | 0.0251 µM [falling, full curve, poor fit] | –
21 | CCOC(=O)c1c(-c2ccccc2Cl)csc1NC(=O)c1cc(S(=O)(=O)N2CCOCC2)ccc1C | 22.4 µM [rising, partial curve] | 11.2 µM [rising, partial curve, poor fit]
22 | COc1ccc(-c2cn3c(n2)CCC3)cc1 | 3.55 µM [rising, partial curve, poor fit] | –
23 | COc1ccc(Cl)cc1C(=O)Nc1ccc(CN2CCCCC2)cc1 | 0.158 µM [falling, single point] | 0.112 µM [falling, full curve, poor fit]
24 | COC(=O)CNC(=O)COC(=O)/C=C/c1ccc2ccccc2n1 | 15.8 µM [rising, partial curve] | –
25 | O=C(Cn1cc(S(=O)(=O)Cc2ccccc2F)c2ccccc21)NCc1ccccc1Cl | – | 35.5 µM [falling, single point]
26 | Cc1cc(C)cc(NC(=O)CN2C(=O)CCc3cc(S(=O)(=O)N4CCCCC4)ccc32)c1 | 5.62 µM [rising, single point] | –
27 | O=C(Nc1ccc(N2CCOCC2)c(Cl)c1)c1ccc(Br)o1 | 25.1 µM [rising, single point] | –
28 | CC(=O)N1c2ccc(S(=O)(=O)NCC3CCC(C(=O)Nc4ccc(F)cc4)CC3)cc2CC1C (stereo not drawn) | 2.51 µM [falling, partial curve] | 35.5 µM [falling, single point]
29 | CCn1cc([N+](=O)[O-])c(C(=O)N2N=C(c3ccc4ccccc4c3)CC2c2cc(Br)ccc2O)n1 (stereo not drawn) | 35.5 µM [falling, single point] | 31.6 µM [falling, single point]
30 | Cc1nnc(SCC(=O)Nc2cccc(C(F)(F)F)c2)n1Cc1ccco1 | – | 1.78 µM [falling, partial curve]
31 | C/C(CC(=O)NC12CC3CC(CC(C3)C1)C2)=N\NC(=O)c1ccc(C)cc1 | 0.251 µM [falling, full curve, poor fit] | 12.6 µM [falling, partial curve, poor fit]
32 | CCOc1ccc(OCC)c(NS(=O)(=O)c2ccc3[nH]c(=O)ccc3c2)c1 | 0.398 µM [rising, partial curve, poor fit] | –
33 | CC(=O)Nc1ccc(S(=O)(=O)Nc2cccc(N(C)S(C)(=O)=O)c2)cc1 | 17.8 µM [rising, partial curve] | 15.8 µM [rising, partial curve, poor fit]
34 | COc1ccc(NC(C)C(=O)N/N=C/c2ccc([N+](=O)[O-])s2)cc1 (stereo not drawn) | 28.2 µM [rising, single point] | –
35 | Cc1cc(C)c(C#N)c(SCC(=O)N(C)C2CCCCC2)n1 | 3.16 µM [rising, single point] | 11.2 µM [rising, single point]
36 | Cn1ccnc1SCC(=O)Nc1ccc(Oc2ccccc2)cc1 | 22.4 µM [rising, single point] | –

2 entries from above, as tab-separated lines.
Row	Structure (SMILES)	AC50 [1]	AC50 [2]
25	O=C(Cn1cc(S(=O)(=O)Cc2ccccc2F)c2ccccc21)NCc1ccccc1Cl	–	35.5 µM [falling, single point]
26	Cc1cc(C)cc(NC(=O)CN2C(=O)CCc3cc(S(=O)(=O)N4CCCCC4)ccc32)c1	5.62 µM [rising, single point]	–
